Binding data for 1 molecule are collected here from publication PMC2990700.

The target of this assay is HA-tagged murine eIF3f catalytic mutant (meIF3f Mut) (mouse) (UniProt Q9DCH4). The experiment in a line: co-IP; HEK293T cotransfected; lysis and IP in 50 mM Tris-HCl pH 7.9, 400 mM NaCl, 5 mM MgCl2, 1% Triton X-100; eIF3f immunoprecipitated with anti-HA or anti-Flag; Western blot. In general terms: Immunoblotting shows a protein as a band on a membrane.

Results are given in words; binding and its absence hold for the method and conditions named. In cells and extracts the contact can be indirect. Binding can be weak; no strength is given. Tags and fused reporters may be left off the sequences shown.

B1: VSV-tagged Deltex1 (VSV-DTX) (protein, UniProt Q86Y01 1-620)
chain: MSRPGHGGLMPVNGLGFPPQNVARVVVWEWLNEHSRWRPYTATVCHHIENVLKEDARGSVVLGQVDAQLVPYIIDLQSMHQFRQDTGTMRPVRRNFYDPSSAPGKGIVWEWENDGGAWTAYDMDICITIQNAYEKQHPWLDLSSLGFCYLIYFNSMSQMNRQTRRRRRLRRRLDLAYPLTVGSIPKSQSWPVGASSGQPCSCQQCLLVNSTRAASNAILASQRRKAPPAPPLPPPPPPGGPPGALAVRPSATFTGAALWAAPAAGPAEPAPPPGAPPRSPGAPGGARTPGQNNLNRPGPQRTTSVSARASIPPGVPALPVKNLNGTGPVHPALAGMTGILLCAAGLPVCLTRAPKPILHPPPVSKSDVKPVPGVPGVCRKTKKKHLKKSKNPEDVVRRYMQKVKNPPDEDCTICMERLVTASGYEGVLRHKGVRPELVGRLGRCGHMYHLLCLVAMYSNGNKDGSLQCPTCKAIYGEKTGTQPPGKMEFHLIPHSLPGFPDTQTIRIVYDIPTGIQGPEHPNPGKKFTARGFPRHCYLPNNEKGRKVLRLLITAWERRLIFTIGTSNTTGESDTVVWNEIHHKTEFGSNLTGHGYPDASYLDNVLAELTAQGVSEAAAKA
For B1, the binding result was “binds”.
